Assay results as given in the supplement of paper PMC12009310.
Where a name gives a salt, the structure may show the parent alone. ± gives the standard deviation of the averaged measurements. The list shows a part of the results. Plates or batches differ in their baseline, so values are only roughly comparable.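 The cells are a mouse kidney inner medullary collecting duct line, silenced either for the ciliary gene Rpgrip1l or with a non-targeting control siRNA.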

The compounds below were run on mIMCD3 (assay: robust z score of cilia incidence (% cells with single cilium) vs plate controls; higher = more ciliated cells). Details: 10 µM; 48 h; siRNA: siScr.

| SMILES | robust z score of cilia incidence |
| --- | --- |
| COc1ccc(NC(=O)c2cc(OCCCN(C)C)nn2Cc2ccccc2)cc1 [CFM 1571 hydrochloride] | -11.7 ± 5.9 |
| CC(=O)N(OCc1ccccc1)[C@H]1c2cc(C#N)ccc2OC(C)(C)[C@H]1O | -0.766 ± 0.75 |
| Cc1ccc(/C=N/NC(=O)c2ccccc2Oc2ccccc2)o1 | -16.9 ± 13 |
| N#Cc1ccc(NCCNCC(=O)N2CCC[C@H]2C#N)nc1 [NVP DPP 728 dihydrochloride] | -2.02 ± 3.3 |
| Cc1ccc2c(c1)C(=O)C1(O)CCN(c3ccccc3)C1=N2 (racemic) [(±)-Blebbistatin] | 12.4 ± 7.8 |
| CCc1ccc2c(-c3cccc(Cl)c3)nc(=O)n(CC)c2n1 | -10.1 ± 1.6 |
| CC(C)NC[C@H](O)COc1cccc2[nH]ccc12 [(S)-(-)-Pindolol] | -0.132 ± 0.027 |
| CC1(C)Oc2ccc(C#N)cc2[C@@H](N2CCCC2=O)[C@@H]1O [Levcromakalim] | 0.883 ± 1.1 |
| Nc1nc2ccc(OC(F)(F)F)cc2s1 [Riluzole hydrochloride] | -8.13 ± 0.11 |
| CC1(C)NC(=O)N(c2ccc([N+](=O)[O-])c(C(F)(F)F)c2)C1=O [Nilutamide] | 3.801 ± 0.035 |
| OCc1cc(C(O)CNCCCCCCOCCCCc2ccccc2)ccc1O (centres undefined) [Salmeterol] | -11.8 ± 5.3 |
| c1cc2c(cc1C1CCCCC1)c1c3n2CCNC3CCC1 (centres undefined) [Tetrindole mesylate] | -46.9 ± 7.5 |
| O=C(O)c1ccc(-c2c[nH]c3ncc(-c4ccccc4)cc23)cc1C1CCCC1 | -20 ± 9.2 |
| CNC(=O)[C@H]1O[C@@H](n2cnc3c(NCc4cccc(I)c4)nc(Cl)nc32)[C@H](O)[C@@H]1O | -6.43 ± 5.7 |
| C[C@@H]1CN(CCCn2c3ccccc3c3ccccc32)C[C@H](C)N1 [Rimcazole dihydrochloride] | -14.6 ± 5.2 |
| O=C1C=CC(=O)C2=C1C1c3ccccc3C2c2ccccc21 | 3.01 ± 2.4 |
| O=C(O)C1=CCCNC1 [Guvacine hydrochloride] | 0.893 ± 0.32 |
| Cc1cccc(/C=C/c2ccccc2)n1 | -0.211 ± 1.4 |
| C[N+](C)(C)CCCCCNCC12CC3CC(CC(C3)C1)C2 | 2.75 ± 0.7 |
| OC[C@H]1O[C@@H](n2cnc3c(N[C@H]4CCC[C@@H]4O)ncnc32)[C@H](O)[C@@H]1O | -0.987 ± 0.33 |

| SMILES | robust z score of cilia incidence |
| --- | --- |
| c1ccc2sc(N3CCN(Cc4ccc5c(c4)OCO5)CC3)nc2c1 [2-[1-(4-Piperonyl)piperazinyl]benzothiazole] | 5.01 ± 0.51 |
| C[C@](N)(Cc1ccc(O)c(O)c1)C(=O)O [L-(-)- α-Methyldopa] | 1.2 ± 0.56 |
| O=C(COc1cccc2c(=O)[nH]ccc12)c1ccccc1 | 4.93 ± 6.8 |
| CCN(CC)CCCCC1CCN(CC(=O)N2c3ccccc3C(=O)Nc3cccnc32)CC1 | 0.799 ± 2 |
| NC(=O)N/N=C/c1ccc(Oc2ccc(F)cc2)cc1 | 2.28 ± 5.5 |
| CCCC1O[C@@H]2C[C@H]3[C@@H]4CCC5=CC(=O)C=C[C@]5(C)[C@H]4[C@@H](O)C[C@]3(C)[C@]2(C(=O)CO)O1 (some centres undefined) [Budesonide] | -21.2 ± 11 |
| Cn1ccc2cc3c(cc21)CCN3C(=O)Nc1cccnc1 | -1.93 ± 6.5 |
| NS(=O)(=O)c1nn2cc(-c3ccccc3)nc2s1 | -6.23 ± 6.2 |
| CCn1c(=O)n(C2=C(CO)CN(CC3CCCCCCC3)CC2)c2ccccc21 | -21.8 ± 1.2 |
| CN1CCC(Nc2ncc3ncnc(Nc4ccc(F)c(Cl)c4)c3n2)CC1 [BIBX 1382 dihydrochloride] | -17.5 ± 12 |
| c1nc(CC2CCNCC2)c[nH]1 [Immepip dihydrobromide] | -4.23 ± 5.4 |
| Nc1ncnc2nc(-c3ccc(N4CCOCC4)nc3)cc(-c3cccc(Br)c3)c12 [ABT 702 dihydrochloride] | -2.7 ± 2.9 |
| CN1[C@@H]2CC[C@H]1C[C@@H](OC(=O)c1c[nH]c3ccccc13)C2 [Tropisetron hydrochloride] | -37.5 ± 15 |
| Fc1ccc(C(c2ccc(F)cc2)N2CCN(C/C=C/c3ccccc3)CC2)cc1 [Flunarizine dihydrochloride] | -4.41 ± 0.63 |
| O=C1Cc2c([nH]c3ccc(Br)cc23)-c2ccccc2N1 [Kenpaullone] | -45.7 ± 2 |
| COC(=O)C1=C(C)NC(C)=C(C(=O)NCCCN2CCC(c3ccccc3)(c3ccccc3)CC2)C1c1ccc([N+](=O)[O-])cc1 (centres undefined) | -50.5 ± 38 |
| Cc1cc(C)c(S(=O)(=O)Nc2ccccc2C(F)(F)F)c(C)c1 | 7.3 ± 3.2 |
| O=c1c(-c2ccc(O)cc2)coc2cc(O)ccc12 [Daidzein] | -3.32 ± 2.5 |
| CN(C)CCCSC(=N)N [Dimaprit dihydrochloride] | 1.21 ± 0.6 |

Rewritten tab-delimited: part of the list above
SMILES	robust z score of cilia incidence
CN1[C@@H]2CC[C@H]1C[C@@H](OC(=O)c1c[nH]c3ccccc13)C2 [Tropisetron hydrochloride]	-37.5 ± 15
Fc1ccc(C(c2ccc(F)cc2)N2CCN(C/C=C/c3ccccc3)CC2)cc1 [Flunarizine dihydrochloride]	-4.41 ± 0.63
